Results reported in patent US20190315859A1.
No constants are given. Whether binding was seen depends on the method and setting. Some entries that bind do so weakly or less than the wild type.

Assays:
[1] = target: human CD19 expressed on the cell surface (native format) (human) (UniProt P15391); assay: flow cytometry with scFv phage on Raji, Raji-CD19 k.o. and Jurkat cells
[2] = target: human CD19 expressed on the cell surface (native format) (human) (UniProt P15391); assay: flow cytometry, phage clone on CD19+ Raji and Jeko-1, CD19- Raji-CD19 k.o. and Jurkat; MFI
[3] = target: human CD19 expressed on the cell surface (native format) (human) (UniProt P15391); assay: flow cytometry, phage clone then anti-M13 mouse antibody then PE-labeled anti-mouse antibody; CD19+ Raji, CD19- Raji-CD19 k.o. and Jurkat; MFI
[4] = target: human CD19 expressed on the cell surface (native format) (human) (UniProt P15391); assay: flow cytometry, phage clone on Raji cells, alone or on cells pre-incubated with the parental clone 6 bi-specific antibody as competitor; anti-M13 mouse antibody, PE-conjugated anti-mouse antibody; MFI
[5] = target: human CD19 expressed on the cell surface (native format) (human) (UniProt P15391); assay: competition cell-binding: phage clone on Raji cells pre-incubated with the parental bi-specific antibody clone
[6] = target: human CD19 expressed on the cell surface (native format) (human) (UniProt P15391); assay: flow cytometry, phage clone on Raji cells, alone or on cells pre-incubated with the parental clone 5 bi-specific antibody as competitor; anti-M13 mouse antibody, PE-conjugated anti-mouse antibody; MFI

Measured: binding

B1: anti-human CD19 scFv phage clone 6 (scFv)
scFv: QAVLTQPPSVSEAPRQRVTISCSGSSSNVGNNAVNWYQQVPGKAPKLLIYYDDLLSSGVSDRFSGSKSGTSASLAISGLQSEDEADYYCAAWDDSLNGPVFGGGTKLTVLGSRGGGGSGGGGSGGGGSLEMAEVQLVQSGAEVKKPGESLKISCKGSGYSFTSYWIGWVRQMPGKGLEWMGIIYPGDSDTRYSPSFQGQVTISADKSISTAYLQWSSLKASDTAMYYCARWSSTWDSMYMDYWGQGTLVTVSS
binds: [1] | [2] | [3] | [4]

B2: anti-human CD19 scFv phage clone 7 (scFv)
scFv: QPVLTQPPSVSVAPGKTARITCGGNNIGSESVHWYQQKPGQAPMVVIYYDSNRPSGIPERFSGSNSGNTATLTVSRVEAEDEADYYCQVWNSSSDHRGVFGGGTKLTVLGSRGGGGSGGGGSGGGGSLEMAEVQLVQSGAEVKKPGESLRISCKGSGYSFTSYWIGWVRQMPGKGLEWMGIIYPGDSDTRYSPSFQGQVTISADKSISTAYLQWSSLKASDTAMYYCARVTYSMDSYYFDSWGQGTLVTVSS
binds: [1] | [3]

B3: variant anti-human CD19 scFv phage clone 5-3 (scFv)
scFv: LPVLTQPPSVSVAPGKTARITCGGNNIGSKSVHWYQQKPGQAPVLVVYDDSNRPSGIPERFSGSNSGNTATLTISRVEAGDEADYYCQVWDSSSEYVVFGGGTKLTVLGSRGGGGSGGGGSGGGGSLEMAEVQLVQSGAEVKKPGESLKISCKGSGYSFTSYWIGWVRQMPGKGLEWMGIIYPGDSDTRYSPSFQGQVTISADKSISTAYLQWSSLKASDTAMYYCARQVWGWQGGMYPRSNWWYNMDSWGQGTLVTVSS
binds: [2] | [5] | [6]
